PubChem BioAssay AID504791, Drosophila RNAi Screening Center – 2011

- Test: 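Factors in Argonaute-based small RNA production and activity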 (primary screen)
- Cells: Drosophila S2-derived reporter cells
- Knock-down reagent: long dsRNA against Drosophila genes, about 150-250 ng dsRNA per well (siRNA assay); about 80-120 ng (miRNA assay)
- Timing: about 5 days (siRNA assay); about 4 days (miRNA assay)
- Conditions: copper sulfate induction of reporters: 25 µM (siRNA assay); 200 mM stated (miRNA assay), 1-2 days before reading
- Measured: 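Dual luciferase assay: Renilla to firefly signal ratio in each well, scaled to the mean ratio of its plate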
- Scale: siRNA reporter hit score: higher = 3 marks a strong hit with raised ratio; -3 a strong hit with lowered ratio
- Hit rule: 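a well was a first-pass pick when its plate-scaled ratio rose above 1.5 (siRNA assay) or 1.6 (miRNA assay), or dropped below 0.6; a gene counted only if two separate dsRNAs agreed on retest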
The screen tested about 23,000 reagents; this is a random part of those with a known target gene and a result. In the full data, 199 (0.86%) are marked active. 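Plate-scaled ratios behind the calls are not deposited; printed light signals are raw; many rows marked increased or decreased are still called inactive.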 A plus sign joins genes that one reagent is predicted to hit.

gene knocked down | dsRNA | siRNA reporter hit score | stable siRNA reporter change | miRNA reporter change | stable assay Renilla, run 1 (luminescence) | stable assay firefly, run 1 (luminescence) | call
Pal2 (Peptidyl-alpha-hydroxyglycine-alpha-amidating lyase 2) | DRSC04507 | – | – | – | 6864 | 3.96e5 | inactive
CG17264 | DRSC00500 | – | – | – | 28044 | 2.39e5 | inactive
Ccdc85 | DRSC00501 | – | – | – | 5847 | 2.49e5 | inactive
Ccdc85 | DRSC23173 | – | – | – | 4155 | 3.01e5 | inactive
CG2233 | DRSC18217 | – | reporter ratio raised past the hit cutoff | – | 38745 | 5.77e5 | inactive
Sec23 (Secretory 23) | DRSC12387 | – | – | – | 4511 | 3.37e5 | inactive
CG15529 | DRSC15066 | – | – | – | 7379 | 4.61e5 | inactive
spn-A (spindle A) | DRSC16812 | – | – | – | 6516 | 5.21e5 | inactive
lncRNA:roX1 (long non-coding RNA on the X 1) | DRSC21884 | – | – | – | 8862 | 4.76e5 | inactive
CG4558 | DRSC18369 | – | reporter ratio lowered past the hit cutoff | – | 3863 | 4.13e5 | inactive
CG5421 | DRSC02858 | – | – | – | 7435 | 4.67e5 | inactive
l(2)03659 (lethal (2) 03659) | DRSC07269 | – | – | – | 7012 | 3.31e5 | inactive
l(2)03659 (lethal (2) 03659) | DRSC07638 | – | – | – | 7999 | 4.53e5 | inactive
Apt1 (Acyl-protein thioesterase 1) | DRSC10348 | – | – | – | 6974 | 5.42e5 | inactive
MAGE | DRSC12504 | – | – | – | 6559 | 3.21e5 | inactive
snoRNA:U31:54Ec + snoRNA:snR38:54Eb + snoRNA:U27:54Eb + 8 more | DRSC06458 | – | – | – | 5539 | 3.11e5 | inactive
Gr58c (Gustatory receptor 58c) | DRSC04136 | – | – | – | 5887 | 2.77e5 | inactive
gce (germ cell-expressed bHLH-PAS) | DRSC19613 | – | – | – | 5808 | 5.34e5 | inactive
gce (germ cell-expressed bHLH-PAS) | DRSC19974 | – | reporter ratio lowered past the hit cutoff | – | 5123 | 8.16e5 | inactive
CG4408 | DRSC15574 | – | – | – | 9639 | 3.58e5 | inactive
CG5107 | DRSC15716 | – | – | – | 8178 | 4.61e5 | inactive
Fcp3C (Follicle cell protein 3C) | DRSC18665 | – | – | – | 6311 | 3.29e5 | inactive
PH4alphaPV (prolyl-4-hydroxylase-alpha PV) | DRSC22400 | – | – | – | 5667 | 6.32e5 | inactive
PH4alphaPV (prolyl-4-hydroxylase-alpha PV) | DRSC28020 | – | – | reporter ratio lowered past the hit cutoff | – | – | inactive
CG9098 | DRSC03136 | – | – | – | 27307 | 3.09e5 | inactive
CG9098 | DRSC22501 | – | – | – | 3360 | 3.52e5 | inactive
RpL37-1 (Ribosomal protein L37-1) | DRSC20149 | – | – | – | 5635 | 5.74e5 | inactive
RpL37-1 (Ribosomal protein L37-1) | DRSC21646 | – | – | – | 10132 | 4.11e5 | inactive
Gld (Glucose dehydrogenase) | DRSC12595 | – | – | – | 6771 | 3.43e5 | inactive
CG11050 | DRSC02125 | 3 | – | reporter ratio lowered past the hit cutoff | 30824 | 5.85e5 | inactive
CG33969 | DRSC11777 | – | – | – | 6858 | 3.23e5 | inactive
CG43693 | DRSC09086 | – | – | – | 4440 | 4.11e5 | inactive
CG43693 | DRSC10625 | – | – | – | 7506 | 5.10e5 | inactive
AP-2alpha (Adaptor Protein complex 2, alpha subunit) | DRSC00800 | – | – | – | 9827 | 3.93e5 | inactive
CG14629 | DRSC18476 | – | – | – | 5400 | 3.45e5 | inactive
se (sepia) | DRSC10713 | – | – | – | 6594 | 4.70e5 | inactive
Adk1 (Adenosine kinase 1) | DRSC15514 | – | – | – | 6384 | 4.27e5 | inactive
bsh (brain-specific homeobox) | DRSC03498 | – | – | – | 3039 | 3.57e5 | inactive
ac (achaete) | DRSC18734 | – | – | – | 6731 | 2.72e5 | inactive
CG31262 | DRSC13216 | – | – | – | 5934 | 5.99e5 | inactive
CG32683 | DRSC17990 | – | – | – | 5858 | 4.29e5 | inactive
CG32683 | DRSC18232 | – | – | – | 6018 | 4.83e5 | inactive
CG32683 | DRSC18233 | – | – | – | 5811 | 5.37e5 | inactive
CG2652 | DRSC18501 | – | – | – | 4387 | 3.92e5 | inactive
CG2652 | DRSC22576 | – | – | – | 4655 | 4.11e5 | inactive
CG31220 | DRSC22248 | – | – | – | 8571 | 5.65e5 | inactive
htk (hat-trick) | DRSC20029 | – | – | – | 6159 | 2.96e5 | inactive
htk (hat-trick) | DRSC20031 | – | – | – | 6522 | 3.33e5 | inactive
CG4815 | DRSC15653 | – | – | – | 5890 | 3.57e5 | inactive
Tailor | DRSC12526 | – | – | – | 7759 | 4.02e5 | inactive
Es2 | DRSC18663 | – | – | – | 7198 | 5.28e5 | inactive
Spc25 | DRSC14164 | – | reporter ratio lowered past the hit cutoff | – | 5995 | 5.69e5 | inactive
CG9313 | DRSC04540 | – | – | – | 58161 | 1.51e6 | inactive
Klp10A (Kinesin-like protein at 10A) | DRSC19601 | – | – | – | 8586 | 5.83e5 | inactive
eIF2Bepsilon (eukaryotic translation initiation factor 2B subunit epsilon) | DRSC18769 | – | – | – | 8418 | 5.98e5 | inactive
CG5727 | DRSC02882 | – | – | – | 5.73e5 | 3.40e5 | inactive
hog | DRSC19057 | – | – | reporter ratio lowered past the hit cutoff | 5627 | 4.09e5 | inactive
CG32202 | DRSC09989 | – | – | – | 8305 | 4.62e5 | inactive
CG33098 | DRSC22903 | – | – | – | 3619 | 3.24e5 | inactive
PICK1 (Protein interacting with C kinase 1) | DRSC02936 | – | – | – | 7048 | 5.04e5 | inactive
CG17698 | DRSC11907 | – | – | – | 6859 | 4.01e5 | inactive
rgr (regular) | DRSC06487 | – | – | – | 8489 | 4.08e5 | inactive
rgr (regular) | DRSC07229 | – | – | – | 8598 | 4.48e5 | inactive
CG14636 | DRSC12223 | – | – | – | 7492 | 3.83e5 | inactive
Prosbeta4R2 (Proteasome beta4 subunit-related 2) | DRSC00503 | – | – | – | 11609 | 6.36e5 | inactive
Trmt112 (tRNA methyltransferase subunit 11-2) | DRSC11685 | – | – | – | 7158 | 4.80e5 | inactive
HDAC3 (Histone deacetylase 3) | DRSC12352 | – | – | – | 8222 | 3.91e5 | inactive
RhoGAP102A (Rho GTPase activating protein at 102A) | DRSC17110 | – | – | – | 7762 | 3.35e5 | inactive
RhoGAP102A (Rho GTPase activating protein at 102A) | DRSC17145 | – | – | – | 7741 | 5.20e5 | inactive
CG17283 | DRSC15219 | – | – | – | 7844 | 4.07e5 | inactive
Sec24AB (Secretory 24AB) | DRSC06478 | – | – | – | 8494 | 4.23e5 | inactive
sog (short gastrulation) | DRSC20379 | – | – | – | 6582 | 4.96e5 | inactive
Or24a (Odorant receptor 24a) | DRSC00768 | – | reporter ratio lowered past the hit cutoff | – | 7616 | 7.07e5 | inactive
CG34049 | DRSC00104 | – | – | – | 4027 | 4.20e5 | inactive
mRpL54 (mitochondrial ribosomal protein L54) | DRSC04545 | – | – | – | 2.53e5 | 3.95e5 | inactive
kumpel (kin of rumpel) | DRSC14883 | – | – | – | 8886 | 3.54e5 | inactive
kumpel (kin of rumpel) | DRSC16459 | – | – | – | 7626 | 4.19e5 | inactive
kumpel (kin of rumpel) | DRSC16460 | – | – | – | 7719 | 4.75e5 | inactive
kumpel (kin of rumpel) | DRSC16461 | – | – | – | 7462 | 4.46e5 | inactive
kumpel (kin of rumpel) | DRSC16462 | – | – | – | 7191 | 3.82e5 | inactive
kumpel (kin of rumpel) | DRSC16463 | – | – | – | 6810 | 3.00e5 | inactive
CG4872 | DRSC19921 | – | – | – | 7439 | 4.35e5 | inactive
CG9312 | DRSC16471 | – | – | – | 8655 | 6.01e5 | inactive
CG42502 + CG10570 | DRSC02071 | – | – | – | 2.71e5 | 1.46e6 | inactive
CG10936 | DRSC05669 | – | – | – | 5914 | 4.90e5 | inactive
CG10936 | DRSC05670 | – | – | – | 6488 | 3.62e5 | inactive
CG10936 | DRSC06018 | – | – | – | 6295 | 2.59e5 | inactive
Tom40 (Translocase of outer membrane 40) | DRSC18796 | – | – | – | 6059 | 4.33e5 | inactive
Gr58a (Gustatory receptor 58a) | DRSC03910 | – | – | – | 5444 | 3.27e5 | inactive
CG12307 | DRSC02159 | – | – | – | 8335 | 5.13e5 | inactive
hfp (half pint) | DRSC08731 | – | – | reporter ratio lowered past the hit cutoff | 5939 | 4.68e5 | inactive
hfp (half pint) | DRSC08732 | – | – | – | 5867 | 4.51e5 | inactive
hfp (half pint) | DRSC22408 | – | – | – | 3999 | 3.71e5 | inactive
hfp (half pint) | DRSC25143 | – | – | reporter ratio lowered past the hit cutoff | – | – | inactive
Gtpx | DRSC08221 | – | – | – | 8380 | 5.90e5 | inactive
Gtpx | DRSC22117 | – | – | – | 8954 | 6.06e5 | inactive
adp (adipose) | DRSC06916 | – | – | – | 8107 | 2.84e5 | inactive
IntS11 (Integrator 11) | DRSC15407 | -3 | – | – | 11357 | 5.52e5 | inactive
Vajk2 | DRSC02540 | – | – | – | 7994 | 4.61e5 | inactive
ft (fat) | DRSC00819 | – | – | – | 10594 | 2.79e5 | inactive
cert (ceramide transfer protein) | DRSC09674 | – | – | – | 7885 | 4.92e5 | inactive
FBXO11 (F-box protein 11) | DRSC16497 | – | – | – | 8194 | 5.32e5 | inactive
CG31279 | DRSC13158 | – | – | – | 3368 | 3.34e5 | inactive
CG33099 | DRSC15774 | – | – | – | 8324 | 3.46e5 | inactive
CG9970 | DRSC08644 | – | – | – | 6162 | 3.35e5 | inactive
eIF3l (eukaryotic translation initiation factor 3 subunit l) | DRSC10530 | – | – | – | 6311 | 3.43e5 | inactive

A run of entries taken from the entries so far:
gene knocked down | dsRNA | siRNA reporter hit score | stable siRNA reporter change | miRNA reporter change | stable assay Renilla, run 1 (luminescence) | stable assay firefly, run 1 (luminescence) | call
se (sepia) | DRSC10713 | – | – | – | 6594 | 4.70e5 | inactive
Adk1 (Adenosine kinase 1) | DRSC15514 | – | – | – | 6384 | 4.27e5 | inactive
bsh (brain-specific homeobox) | DRSC03498 | – | – | – | 3039 | 3.57e5 | inactive
ac (achaete) | DRSC18734 | – | – | – | 6731 | 2.72e5 | inactive
CG31262 | DRSC13216 | – | – | – | 5934 | 5.99e5 | inactive
CG32683 | DRSC17990 | – | – | – | 5858 | 4.29e5 | inactive
CG32683 | DRSC18232 | – | – | – | 6018 | 4.83e5 | inactive
CG32683 | DRSC18233 | – | – | – | 5811 | 5.37e5 | inactive
CG2652 | DRSC18501 | – | – | – | 4387 | 3.92e5 | inactive
